Measurements reported in PubChem BioAssay AID1259405 (NCATS, 2018).
The whole screen tested about 50,000 reagents; below is a random part of them. In the full data, about 4,000 (8%) got an active call. 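Mouse siRNA library applied to hamster cells; one well for each siRNA.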 Reagents against one gene are numbered here.

- Aim: 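Mouse-designed siRNAs used to find CHO productivity engineering targets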 (primary screen)
- System: Chinese hamster CHO-K1 ovary cells with stable secreted eGFP expression
- Reagent: single siRNA against mouse genes, 0.8 pmol siRNA per well (2 µl of 400 nM stock)
- Duration: 3 days
- Read-out: 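Per-well intracellular GFP measured by laser scanning cytometry, plus viability from ATP luminescence, each relative to plate median of non-targeting control wells, in %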
- Reading the numbers: GFP, % of control: higher = more GFP per well, higher productivity; viability (ATP), % of control: higher = more viable cells (more ATP)
- Active means: 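Called active when intracellular GFP, relative to negative control, is at or above 120%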

Knock-down of Efna5 (ephrin A5) #1 gave: GFP, % of control 47.8; viability (ATP), % of control 67.5; inactive.
After knock-down of Efna5 (ephrin A5) #2, the record shows GFP, % of control 52.8; viability (ATP), % of control 71.8; inactive.
With knock-down of Efna5 (ephrin A5) #3, the screen gave GFP, % of control 58.8; viability (ATP), % of control 57.1; inactive.
Yme1l1 (YME1-like 1 (S. cerevisiae)) #1 scored GFP, % of control 93.9; viability (ATP), % of control 79.3; inactive.
Against Yme1l1 (YME1-like 1 (S. cerevisiae)) #2, the values are GFP, % of control 88.1; viability (ATP), % of control 84.7; inactive.
Yme1l1 (YME1-like 1 (S. cerevisiae)) #3 showed GFP, % of control 136; viability (ATP), % of control 92.4; active.
After knock-down of Plppr4 (phospholipid phosphatase related 4) #1, the record shows GFP, % of control 68.9; viability (ATP), % of control 43.9; inactive.
Silencing of Plppr4 (phospholipid phosphatase related 4) #2 gave: GFP, % of control 96.9; viability (ATP), % of control 61.9; inactive.
After knock-down of Plppr4 (phospholipid phosphatase related 4) #3 the results were GFP, % of control 75.9; viability (ATP), % of control 90.8; inactive.
Silencing of Lrp8 #1 resulted in: GFP, % of control 74.5; viability (ATP), % of control 66.4; inactive.
After knock-down of Lrp8 #2, the record shows GFP, % of control 71.7; viability (ATP), % of control 86.2; inactive.
With knock-down of Lrp8 #3 the results were GFP, % of control 85.6; viability (ATP), % of control 49; inactive.
For Ptgr1 (prostaglandin reductase 1) #1, the values are GFP, % of control 85.6; viability (ATP), % of control 94.7; inactive.
With knock-down of Ptgr1 (prostaglandin reductase 1) #2, the record shows GFP, % of control 77.2; viability (ATP), % of control 77.2; inactive.
Depletion of Ptgr1 (prostaglandin reductase 1) #3 gave: GFP, % of control 64.8; viability (ATP), % of control 89.5; inactive.
Against Ptger2 (prostaglandin E receptor 2 (subtype EP2)) #1 the deposit lists GFP, % of control 36.9; viability (ATP), % of control 26.3; inactive.
With knock-down of Ptger2 (prostaglandin E receptor 2 (subtype EP2)) #2 the results were GFP, % of control 87.5; viability (ATP), % of control 87.7; inactive.
Ptger2 (prostaglandin E receptor 2 (subtype EP2)) #3 scored GFP, % of control 70.6; viability (ATP), % of control 71.7; inactive.
Ubiad1 (UbiA prenyltransferase domain containing 1) #1 gave GFP, % of control 117; viability (ATP), % of control 88.3; inactive.
Silencing of Ubiad1 (UbiA prenyltransferase domain containing 1) #2 came out at: GFP, % of control 82.3; viability (ATP), % of control 80.9; inactive.
Against Ubiad1 (UbiA prenyltransferase domain containing 1) #3, the values are GFP, % of control 54.6; viability (ATP), % of control 68.5; inactive.
Silencing of Inppl1 (inositol polyphosphate phosphatase-like 1) #1 came out at: GFP, % of control 93.7; viability (ATP), % of control 80.1; inactive.
For Inppl1 (inositol polyphosphate phosphatase-like 1) #2, the values are GFP, % of control 90.4; viability (ATP), % of control 69.8; inactive.
After knock-down of Inppl1 (inositol polyphosphate phosphatase-like 1) #3, the screen gave GFP, % of control 113; viability (ATP), % of control 90.4; inactive.
Ndufab1 (NADH:ubiquinone oxidoreductase subunit AB1) #1 scored GFP, % of control 90.9; viability (ATP), % of control 49.7; inactive.
After knock-down of Ndufab1 (NADH:ubiquinone oxidoreductase subunit AB1) #2, the record shows GFP, % of control 83; viability (ATP), % of control 60.3; inactive.
Knock-down of Ndufab1 (NADH:ubiquinone oxidoreductase subunit AB1) #3 resulted in: GFP, % of control 180; viability (ATP), % of control 150; active.

In a second layout: entries from further up
{"target":"Ubiad1 (UbiA prenyltransferase domain containing 1)","siRNA no.":3,"GFP, % of control":54.6,"viability (ATP), % of control":68.5,"outcome":"inactive"}
{"target":"Inppl1 (inositol polyphosphate phosphatase-like 1)","siRNA no.":1,"GFP, % of control":93.7,"viability (ATP), % of control":80.1,"outcome":"inactive"}
{"target":"Inppl1 (inositol polyphosphate phosphatase-like 1)","siRNA no.":2,"GFP, % of control":90.4,"viability (ATP), % of control":69.8,"outcome":"inactive"}
